We go through 1 molecule from publication doi:10.1101/2021.03.25.437050.

The target in this experiment is T1, Homer1 (mouse (endogenous in cultured cortical neurons and brain tissue)), Q9Z2Y3.
T1 chain: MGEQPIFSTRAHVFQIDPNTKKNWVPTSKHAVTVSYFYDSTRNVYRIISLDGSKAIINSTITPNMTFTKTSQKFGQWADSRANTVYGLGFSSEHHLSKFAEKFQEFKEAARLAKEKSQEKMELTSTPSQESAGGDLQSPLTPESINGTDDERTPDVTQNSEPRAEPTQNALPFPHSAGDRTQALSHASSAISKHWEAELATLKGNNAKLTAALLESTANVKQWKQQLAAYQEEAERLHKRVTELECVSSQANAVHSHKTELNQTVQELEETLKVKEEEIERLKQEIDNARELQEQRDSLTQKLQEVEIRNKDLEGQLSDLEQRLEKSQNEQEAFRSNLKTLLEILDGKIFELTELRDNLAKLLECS
The experiment can be described thus: co-IP. The note with it: remark: other sources report otherwise.

Results are given in words; binding and its absence hold for the method and conditions named. In cells and extracts the contact can be indirect. Some entries that bind do so weakly or less than the wild type.

B1: Homer1, Q9Z2Y3 1-366 (protein)
chain: T1 chain
With B1, the binding result is recorded as “binds”.
